PubChem BioAssay AID504467 (National Center for Advancing Translational Sciences (NCATS), 2011)
Screen size: about 330,000 compounds; about 7,700 (2.3%) were called active. Inconclusive results, whose numbers are uncertain, are shown with a selection of clear calls. The call rests on the fitted dose curve; in most records, active means well fitted inhibition curve with a large enough effect; inconclusive means small, poorly fitted or top-dose-only effect, or effect the other way; inactive means flat fitted curve, though single readings scatter. A potency beside an inconclusive call is a rough fit, not a confirmed value.

Assay: qHTS screen for small molecules that inhibit ELG1-dependent DNA repair in human embryonic kidney (HEK293T) cells expressing luciferase-tagged ELG1; further: nearly all actives have a fitted effect of over 55% in size
Settings: HEK293T ELG1-luciferase reporter, luminescence, 16 h, DNA damage induced by 5-fluorouridine; series mostly up to 46.1 µM
How it was run: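 Cells (2,000 per well) received 5-fluorouridine plus test compound or DMSO and were incubated 16 hr at 37 °C, 5% CO2. Luciferase activity was read by luminescence 30 min after ONE-Glo addition; signal suppression marked inhibition of damage-induced ELG1 function.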
Potency means the concentration at half of the fitted maximal effect.

Q: Which Potency does the source give for `Cc1cc(NC(=O)c2sc(Nc3ccc(F)cc3)nc2N)no1` here?
A: inconclusive: 23.1 µM [activator, partial curve]

Q: For `CCOc1cc(C(=O)N(CC)CC(=O)Nc2ccc3c(c2)OCCO3)ccc1OC`, which Potency is on record?
A: inconclusive: 18.3 µM [activator, partial curve, poor fit]

Q: For `O=C(CNC(=O)c1ccco1)NNC(=O)c1ccc(Br)cc1`, which Potency is on record?
A: inconclusive: 13 µM [activator, partial curve, poor fit]

Q: With `COc1cccc(CNC(=O)c2ccc(C)c(S(=O)(=O)N3CCCCC3)c2)c1` as the molecule, how does the Potency read?
A: inconclusive: 25.9 µM [inhibitor, single point]

Q: With `Clc1ccc2c(N/N=C/c3cccnc3)ccnc2c1` as the molecule, how does the Potency read?
A: inconclusive: 16.4 µM [activator, partial curve, poor fit]

Q: For `CCOC(=O)N1CCN(c2c(NCc3cccs3)c(=O)c2=O)CC1`, which Potency is on record?
A: inactive

Q: With `COC(=O)c1sc(NC(=O)CSc2nnc(C(C)C)n2C)nc1C` as the molecule, how does the Potency read?
A: inactive

Q: Which Potency does the source give for `CC(C(=O)Nc1cc(C(F)(F)F)ccc1N1CCOCC1)N1C(=O)C2CCCCC2C1=O` (stereo not given) here?
A: inconclusive: 18.3 µM [activator, partial curve, poor fit]

Q: For `COc1ccc(C(=O)Nc2ccccc2C(=O)NC(Cc2ccc(O)cc2)C(=O)NNC(=O)c2ccccc2Cl)cc1` (stereo not given), which Potency is on record?
A: inconclusive: 16.4 µM [inhibitor, single point]

Q: With `O=C(CSc1nnc(-c2ccccc2Cl)o1)N1CCOCC1` as the molecule, how does the Potency read?
A: inconclusive: 20.6 µM [activator, partial curve]

Q: Which Potency does the source give for `Cn1c(SCC(=O)c2cccs2)nnc1-c1ccco1` here?
A: inconclusive: 29.1 µM [activator, single point]

Q: For `COc1cc(NC(=O)c2cc([N+](=O)[O-])ccc2Br)ccc1NC(=O)c1ccco1`, which Potency is on record?
A: inactive

Q: For `Cc1ccc(C)c(Nc2ccc(C(=O)NCCc3ccccc3)cn2)c1`, which Potency is on record?
A: inactive

Q: With `O=C(CN1C(=O)C2C3C=CC(C4CC34)C2C1=O)Nc1cnc2ccccc2c1` (stereo not given) as the molecule, how does the Potency read?
A: inactive

Q: Which Potency does the source give for `CC1(C(=O)Nc2ccc3c(c2)OCO3)CC1(Cl)Cl` (stereo not given) here?
A: inconclusive: 16.4 µM [activator, partial curve, poor fit]

Q: With `CCOC(=O)c1ccc(NC(=O)CC2SCCNC2=O)cc1` (stereo not given) as the molecule, how does the Potency read?
A: inconclusive: 14.6 µM [activator, partial curve]

Q: Which Potency does the source give for `COC(=O)c1ccc(/C=C/c2ccc3cccc(OC(C)=O)c3n2)cc1` here?
A: inconclusive: 2.31 µM [activator, partial curve]

Q: With `Cc1cc(NC(=O)COc2ccc3oc4ccccc4c3c2)no1` as the molecule, how does the Potency read?
A: inactive

Q: Which Potency does the source give for `COCc1c(C(=O)OC)nnn1-c1ccc(C(F)(F)F)cc1[N+](=O)[O-]` here?
A: inactive

Q: Which Potency does the source give for `CCOc1ccc(NC(=S)N(CCc2c(C)[nH]c3ccc(C)cc23)Cc2ccco2)cc1` here?
A: active: 16.4 µM

Q: With `Cc1ccccc1Nc1c(-c2ccc(N3CCOCC3)cc2)nc2ncccn12` as the molecule, how does the Potency read?
A: inactive

Q: For `CSc1ncccc1C(=O)OCC(=O)Nc1ccc(C)c(S(=O)(=O)N2CCOCC2)c1`, which Potency is on record?
A: inconclusive: 23.1 µM [inhibitor, single point]

Q: With `Cc1cc2nc(-c3ccco3)cc(C(F)(F)F)n2n1` as the molecule, how does the Potency read?
A: inconclusive: 29.1 µM [inhibitor, single point]

Q: Which Potency does the source give for `O=C(Nc1ncc(Cc2ccccc2Cl)s1)c1ccc([N+](=O)[O-])cc1` here?
A: inactive

Q: Which Potency does the source give for `CC1(NC(=O)CCc2nc3ccccc3c(=O)[nH]2)CCS(=O)(=O)C1` (stereo not given) here?
A: inactive

Q: With `COc1ccc2[nH]c(C(=O)Nc3ccc(C)c(F)c3)cc2c1` as the molecule, how does the Potency read?
A: inconclusive: 20.6 µM [activator, single point]

Q: For `CCOc1ccc(NS(=O)(=O)c2csc(C(N)=O)c2)cc1`, which Potency is on record?
A: inconclusive: 18.3 µM [inhibitor, partial curve, poor fit]

Q: With `Cc1ccc(N(C)C(=O)c2cc(S(=O)(=O)N3CCCCC3)c[nH]2)cc1` as the molecule, how does the Potency read?
A: active: 3.66 µM

Q: Which Potency does the source give for `COC(=O)c1ccc(/C=C(\C#N)C(=O)NC(C)c2ccccc2)cc1` (stereo not given) here?
A: inconclusive: 29.1 µM [inhibitor, single point]

Q: For `CCN(CC)c1cc2nc(C)n(Cc3ccccc3)c(=O)c2cc1NC(=O)C1CC1`, which Potency is on record?
A: inconclusive: 16.4 µM [inhibitor, partial curve, poor fit]

Q: For `COc1cccc(-c2ccc(NC(=O)C3CCCN(Cc4cnc(N(C)C)s4)C3)cc2)c1` (stereo not given), which Potency is on record?
A: inactive

Q: Which Potency does the source give for `CCOc1ccc(NS(=O)(=O)c2ccc(C(=O)NCC(c3ccccc3OC)N3CCCC3)cc2)cc1` (stereo not given) here?
A: inactive

Q: For `Cc1ccc(S(=O)(=O)CCC(=O)Oc2ccc(-c3nnco3)cc2)cc1`, which Potency is on record?
A: inactive

Q: With `CNC(=O)COC(=O)/C=C/c1nc2ccccc2s1` as the molecule, how does the Potency read?
A: inconclusive: 18.3 µM [activator, partial curve, poor fit]

Q: Which Potency does the source give for `Cc1cc(-c2ccccc2)nc(N2CCC(C(=O)NCc3ccccc3Cl)CC2)n1` here?
A: inconclusive: 25.9 µM [activator, single point]

Q: Which Potency does the source give for `COc1ccc(CN2CCN(c3nc4ccccc4s3)CC2)cc1` here?
A: inconclusive: 32.6 µM [activator, partial curve, poor fit]

Q: For `O=C(O)c1cc(-c2ccc(/C=N/N3C(=O)C4C5C=CC(C6CC56)C4C3=O)o2)ccc1Cl` (stereo not given), which Potency is on record?
A: inconclusive: 23.1 µM [activator, partial curve, poor fit]

Q: For `N#C/C(=C\Nc1ccc2c(c1)OCCO2)C(=O)NCc1ccco1`, which Potency is on record?
A: inactive

Q: With `CCC(C)NS(=O)(=O)c1ccc(S(=O)(=O)N2CCCC3(CCCCC3)C2)cc1` (stereo not given) as the molecule, how does the Potency read?
A: inconclusive: 7.31 µM [inhibitor, partial curve, poor fit]

Q: Which Potency does the source give for `COc1cccc(-n2c(=S)sc3c(=O)n(-c4ccccc4OC)c(SCC4OCCO4)nc32)c1` here?
A: inconclusive: 29.1 µM [inhibitor, single point]

Q: Which Potency does the source give for `Cc1ccc2oc(=O)c(/C=C(\O)C(C)(C)C)nc2c1` here?
A: inactive

Q: For `Cc1cccc(OCc2nc(-c3cccnc3)no2)c1`, which Potency is on record?
A: inconclusive: 18.4 µM [activator, partial curve]

Q: For `O=C(Cn1cnc2c(nnn2Cc2ccc(F)cc2)c1=O)Nc1ccccc1`, which Potency is on record?
A: inactive

Q: With `CCOc1cc(/C=N/Nc2nc(=O)[nH]nc2C)ccc1O` as the molecule, how does the Potency read?
A: inactive

Q: With `Cc1nc(N2CCCCC2)c2c(C)c(C(=O)Nc3ccccc3C(F)(F)F)sc2n1` as the molecule, how does the Potency read?
A: inconclusive: 25.9 µM [inhibitor, single point]
